Read-outs that look alike come from different tables or passages of the source. These are yes or no findings as the source states them, for the method shown. In cells and extracts the contact can be indirect. Some results given as binding are weak or reduced against the parent protein; the word gives no strength. For part of these data: Where a sequence is shown, tags or fusion partners need not be part of it.
T1: GFP-tagged Lrif1 long isoform, m1 mutant (R732E/L733A/K734E) (mouse) (UniProt Q8CDD9)
T1 sequence: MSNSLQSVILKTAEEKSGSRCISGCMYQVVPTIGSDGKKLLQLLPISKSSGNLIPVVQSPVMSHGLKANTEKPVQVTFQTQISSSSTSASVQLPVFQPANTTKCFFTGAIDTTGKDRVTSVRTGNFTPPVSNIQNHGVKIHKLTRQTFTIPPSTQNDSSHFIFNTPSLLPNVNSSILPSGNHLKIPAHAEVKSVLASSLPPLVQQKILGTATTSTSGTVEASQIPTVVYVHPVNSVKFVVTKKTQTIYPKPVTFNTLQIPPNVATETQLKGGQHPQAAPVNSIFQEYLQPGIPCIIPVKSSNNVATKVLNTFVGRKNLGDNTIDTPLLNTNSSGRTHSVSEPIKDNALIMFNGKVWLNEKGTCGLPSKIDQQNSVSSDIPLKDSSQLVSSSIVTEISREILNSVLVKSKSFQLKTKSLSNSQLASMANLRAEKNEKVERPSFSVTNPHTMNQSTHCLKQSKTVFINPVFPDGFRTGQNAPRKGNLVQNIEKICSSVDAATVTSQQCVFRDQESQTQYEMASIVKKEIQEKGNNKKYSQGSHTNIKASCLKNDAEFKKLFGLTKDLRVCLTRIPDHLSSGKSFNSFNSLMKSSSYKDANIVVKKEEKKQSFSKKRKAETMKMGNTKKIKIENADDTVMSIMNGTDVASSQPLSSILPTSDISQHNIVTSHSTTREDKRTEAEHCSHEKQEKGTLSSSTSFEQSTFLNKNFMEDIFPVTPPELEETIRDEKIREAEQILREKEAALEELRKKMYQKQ

Sequences of proteins named here, by UniProt entry; tags and fusion partners are left off.
UniProt Q62318: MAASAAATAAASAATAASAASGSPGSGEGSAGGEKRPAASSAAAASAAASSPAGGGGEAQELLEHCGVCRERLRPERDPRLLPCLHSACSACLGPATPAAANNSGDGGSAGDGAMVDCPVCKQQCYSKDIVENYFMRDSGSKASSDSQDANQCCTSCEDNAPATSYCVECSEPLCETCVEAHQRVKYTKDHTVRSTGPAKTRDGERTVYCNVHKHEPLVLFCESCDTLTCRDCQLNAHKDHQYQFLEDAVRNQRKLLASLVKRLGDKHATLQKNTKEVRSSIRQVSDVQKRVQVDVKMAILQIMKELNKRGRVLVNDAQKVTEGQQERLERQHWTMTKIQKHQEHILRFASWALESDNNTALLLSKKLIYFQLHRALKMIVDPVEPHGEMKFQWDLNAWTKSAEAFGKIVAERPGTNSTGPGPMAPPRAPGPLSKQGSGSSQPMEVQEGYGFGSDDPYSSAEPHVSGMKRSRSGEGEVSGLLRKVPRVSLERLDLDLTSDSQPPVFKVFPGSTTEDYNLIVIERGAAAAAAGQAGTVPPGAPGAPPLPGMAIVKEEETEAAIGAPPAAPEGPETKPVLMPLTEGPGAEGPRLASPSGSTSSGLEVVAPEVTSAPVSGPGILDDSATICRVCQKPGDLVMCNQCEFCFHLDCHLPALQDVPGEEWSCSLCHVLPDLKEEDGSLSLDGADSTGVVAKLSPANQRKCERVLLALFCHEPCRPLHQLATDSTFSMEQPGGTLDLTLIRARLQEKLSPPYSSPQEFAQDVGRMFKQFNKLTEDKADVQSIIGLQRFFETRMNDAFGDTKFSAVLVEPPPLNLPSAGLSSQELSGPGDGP
UniProt Q13263: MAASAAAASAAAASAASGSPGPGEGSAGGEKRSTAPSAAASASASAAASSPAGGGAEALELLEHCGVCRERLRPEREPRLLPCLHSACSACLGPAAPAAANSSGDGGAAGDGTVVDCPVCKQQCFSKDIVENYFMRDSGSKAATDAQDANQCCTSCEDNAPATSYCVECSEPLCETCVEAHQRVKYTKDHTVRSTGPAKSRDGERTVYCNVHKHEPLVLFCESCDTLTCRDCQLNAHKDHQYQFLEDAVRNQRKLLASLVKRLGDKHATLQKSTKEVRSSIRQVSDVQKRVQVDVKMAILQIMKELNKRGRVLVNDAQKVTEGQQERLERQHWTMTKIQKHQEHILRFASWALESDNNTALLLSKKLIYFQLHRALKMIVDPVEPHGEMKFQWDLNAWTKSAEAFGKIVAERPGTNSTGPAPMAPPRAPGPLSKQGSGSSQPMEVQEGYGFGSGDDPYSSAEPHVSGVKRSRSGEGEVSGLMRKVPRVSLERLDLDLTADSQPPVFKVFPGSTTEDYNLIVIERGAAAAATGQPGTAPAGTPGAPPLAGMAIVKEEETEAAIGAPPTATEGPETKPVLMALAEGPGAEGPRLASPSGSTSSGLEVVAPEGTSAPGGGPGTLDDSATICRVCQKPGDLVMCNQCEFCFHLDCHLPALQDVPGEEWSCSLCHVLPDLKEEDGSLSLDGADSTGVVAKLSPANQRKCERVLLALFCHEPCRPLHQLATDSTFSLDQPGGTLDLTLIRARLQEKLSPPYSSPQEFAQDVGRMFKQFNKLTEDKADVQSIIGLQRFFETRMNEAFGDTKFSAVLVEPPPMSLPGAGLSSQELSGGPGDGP
UniProt A6NHR9: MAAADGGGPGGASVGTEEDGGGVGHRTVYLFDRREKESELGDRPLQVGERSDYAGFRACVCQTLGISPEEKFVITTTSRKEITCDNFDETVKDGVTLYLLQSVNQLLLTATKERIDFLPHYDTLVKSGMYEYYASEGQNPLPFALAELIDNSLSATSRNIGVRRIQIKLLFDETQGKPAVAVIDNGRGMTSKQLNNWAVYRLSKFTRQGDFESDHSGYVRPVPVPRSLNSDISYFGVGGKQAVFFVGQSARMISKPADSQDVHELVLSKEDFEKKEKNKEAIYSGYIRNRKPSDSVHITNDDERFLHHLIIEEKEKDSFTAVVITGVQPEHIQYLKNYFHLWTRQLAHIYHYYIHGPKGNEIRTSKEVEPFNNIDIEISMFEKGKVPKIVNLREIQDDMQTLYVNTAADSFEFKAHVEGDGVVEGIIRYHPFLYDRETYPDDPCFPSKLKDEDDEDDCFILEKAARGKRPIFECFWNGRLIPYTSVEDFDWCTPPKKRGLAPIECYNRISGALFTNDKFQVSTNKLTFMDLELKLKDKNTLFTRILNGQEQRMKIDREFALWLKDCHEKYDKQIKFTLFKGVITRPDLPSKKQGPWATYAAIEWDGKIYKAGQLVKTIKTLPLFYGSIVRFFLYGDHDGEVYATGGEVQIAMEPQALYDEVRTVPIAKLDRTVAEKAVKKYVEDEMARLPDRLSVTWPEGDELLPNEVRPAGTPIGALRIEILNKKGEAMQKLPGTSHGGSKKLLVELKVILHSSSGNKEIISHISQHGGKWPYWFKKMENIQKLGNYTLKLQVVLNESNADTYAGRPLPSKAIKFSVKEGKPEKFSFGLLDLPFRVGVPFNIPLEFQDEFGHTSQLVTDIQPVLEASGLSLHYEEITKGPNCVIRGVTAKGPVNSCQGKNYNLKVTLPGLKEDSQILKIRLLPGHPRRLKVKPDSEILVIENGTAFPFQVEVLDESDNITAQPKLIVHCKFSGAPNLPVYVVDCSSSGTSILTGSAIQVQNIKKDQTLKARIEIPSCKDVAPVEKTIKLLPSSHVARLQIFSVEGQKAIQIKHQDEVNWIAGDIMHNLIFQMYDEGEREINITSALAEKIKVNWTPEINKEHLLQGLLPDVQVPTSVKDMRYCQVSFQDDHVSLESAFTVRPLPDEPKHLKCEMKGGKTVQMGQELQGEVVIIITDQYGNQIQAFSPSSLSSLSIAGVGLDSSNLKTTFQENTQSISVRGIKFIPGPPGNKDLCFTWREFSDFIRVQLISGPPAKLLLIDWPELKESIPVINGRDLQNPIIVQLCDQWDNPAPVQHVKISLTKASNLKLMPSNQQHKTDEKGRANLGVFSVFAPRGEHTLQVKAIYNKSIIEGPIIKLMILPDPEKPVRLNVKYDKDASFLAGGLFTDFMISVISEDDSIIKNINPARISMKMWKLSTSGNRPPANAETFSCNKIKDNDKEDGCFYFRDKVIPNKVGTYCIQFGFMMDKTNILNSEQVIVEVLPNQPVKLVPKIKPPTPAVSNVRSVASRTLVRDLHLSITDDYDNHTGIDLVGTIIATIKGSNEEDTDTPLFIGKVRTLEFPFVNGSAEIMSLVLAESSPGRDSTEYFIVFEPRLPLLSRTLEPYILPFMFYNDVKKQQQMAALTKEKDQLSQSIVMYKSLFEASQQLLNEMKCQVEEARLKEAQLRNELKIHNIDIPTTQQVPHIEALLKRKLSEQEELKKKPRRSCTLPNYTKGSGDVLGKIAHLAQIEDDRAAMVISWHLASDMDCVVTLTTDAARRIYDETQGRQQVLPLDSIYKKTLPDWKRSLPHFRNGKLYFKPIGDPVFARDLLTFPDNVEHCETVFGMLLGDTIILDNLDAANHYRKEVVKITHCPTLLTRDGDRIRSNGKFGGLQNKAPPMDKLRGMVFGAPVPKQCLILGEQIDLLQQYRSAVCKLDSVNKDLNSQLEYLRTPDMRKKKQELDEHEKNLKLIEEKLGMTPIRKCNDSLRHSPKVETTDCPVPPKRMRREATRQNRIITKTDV
UniProt P23198: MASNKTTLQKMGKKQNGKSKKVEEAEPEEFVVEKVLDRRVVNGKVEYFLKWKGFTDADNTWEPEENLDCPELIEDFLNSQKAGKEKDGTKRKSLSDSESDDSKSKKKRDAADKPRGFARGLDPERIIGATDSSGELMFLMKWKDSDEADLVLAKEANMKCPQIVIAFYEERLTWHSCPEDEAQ
UniProt Q13185: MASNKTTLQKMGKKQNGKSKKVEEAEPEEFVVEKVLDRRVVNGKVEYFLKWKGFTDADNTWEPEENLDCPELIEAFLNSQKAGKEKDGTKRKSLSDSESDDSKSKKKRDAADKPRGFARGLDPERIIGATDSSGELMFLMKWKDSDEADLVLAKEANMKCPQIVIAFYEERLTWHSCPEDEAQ

T2: GFP-tagged Lrif1 long isoform, mPVL mutant (V567D/L569E) (mouse) (UniProt Q8CDD9)
T2 sequence: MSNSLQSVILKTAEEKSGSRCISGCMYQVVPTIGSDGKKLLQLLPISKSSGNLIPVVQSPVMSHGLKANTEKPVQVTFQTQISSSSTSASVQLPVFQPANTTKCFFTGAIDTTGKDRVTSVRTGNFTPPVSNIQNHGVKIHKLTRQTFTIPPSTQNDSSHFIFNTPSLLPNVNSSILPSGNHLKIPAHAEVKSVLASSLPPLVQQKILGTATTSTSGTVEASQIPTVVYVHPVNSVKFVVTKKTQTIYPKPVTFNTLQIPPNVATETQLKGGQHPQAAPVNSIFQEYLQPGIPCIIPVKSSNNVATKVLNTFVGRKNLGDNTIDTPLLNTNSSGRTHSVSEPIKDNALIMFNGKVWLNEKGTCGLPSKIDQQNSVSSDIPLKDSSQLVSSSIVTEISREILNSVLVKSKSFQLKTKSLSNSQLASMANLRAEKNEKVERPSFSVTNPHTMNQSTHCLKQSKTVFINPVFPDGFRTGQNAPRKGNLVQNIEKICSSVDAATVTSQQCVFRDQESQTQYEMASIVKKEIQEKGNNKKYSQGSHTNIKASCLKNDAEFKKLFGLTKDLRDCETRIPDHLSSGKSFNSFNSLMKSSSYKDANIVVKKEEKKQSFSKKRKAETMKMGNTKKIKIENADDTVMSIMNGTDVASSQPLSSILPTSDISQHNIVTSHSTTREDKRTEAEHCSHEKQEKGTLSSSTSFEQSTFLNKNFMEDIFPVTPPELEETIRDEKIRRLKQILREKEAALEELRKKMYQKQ

T3: GFP-tagged Lrif1 long isoform, wild type (expressed in HEK293T) (mouse) (UniProt Q8CDD9)
T3 sequence: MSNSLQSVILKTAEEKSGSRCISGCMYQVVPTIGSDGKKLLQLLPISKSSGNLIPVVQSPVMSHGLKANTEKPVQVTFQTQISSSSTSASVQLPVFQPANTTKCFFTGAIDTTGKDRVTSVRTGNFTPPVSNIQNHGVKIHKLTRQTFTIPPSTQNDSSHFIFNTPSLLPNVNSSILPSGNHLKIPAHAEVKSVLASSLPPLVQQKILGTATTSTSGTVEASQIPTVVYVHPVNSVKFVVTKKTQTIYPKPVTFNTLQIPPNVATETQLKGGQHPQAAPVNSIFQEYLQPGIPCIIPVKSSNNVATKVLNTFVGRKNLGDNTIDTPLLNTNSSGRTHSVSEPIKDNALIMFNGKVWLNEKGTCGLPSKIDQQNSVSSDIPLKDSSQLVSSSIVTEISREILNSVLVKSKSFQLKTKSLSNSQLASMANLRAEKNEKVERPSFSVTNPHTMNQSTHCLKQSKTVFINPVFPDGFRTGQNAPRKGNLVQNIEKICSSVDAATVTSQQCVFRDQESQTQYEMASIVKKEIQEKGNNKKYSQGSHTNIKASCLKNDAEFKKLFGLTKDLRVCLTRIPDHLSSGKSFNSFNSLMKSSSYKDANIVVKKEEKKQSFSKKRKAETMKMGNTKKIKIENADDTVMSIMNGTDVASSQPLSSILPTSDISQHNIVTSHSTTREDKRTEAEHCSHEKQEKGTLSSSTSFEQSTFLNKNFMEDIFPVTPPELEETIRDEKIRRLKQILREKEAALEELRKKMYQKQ


Legend:
Assay in all cases: co-IP
[1] = target: Trim28 (tripartite motif-containing protein 28), endogenous in mESCs (mouse (endogenous in E14 mESCs)) (UniProt Q62318)
[2] = target: T1, GFP-tagged Lrif1 long isoform, m1 mutant (R732E/L733A/K734E) (mouse)
[3] = target: T2, GFP-tagged Lrif1 long isoform, mPVL mutant (V567D/L569E) (mouse)
[4] = target: T3, GFP-tagged Lrif1 long isoform, wild type (expressed in HEK293T) (mouse)
[5] = target: Trim28 (tripartite motif-containing protein 28), endogenous in mESCs (mouse (endogenous in E14 mESCs)) (UniProt Q62318); remark: listed apart in the source

Row | binding [1] | binding [2] | binding [3] | binding [4] | binding [5] | Molecule
1 |  | binds | binds | binds |  | human TRIM28, endogenous in HEK293T (from UniProt Q13263 1-835)
2 |  | no binding |  | binds |  | human SMCHD1, endogenous in HEK293T (from UniProt A6NHR9 1-2005)

More lines, now with the values behind:

Row | Molecule | binding [1] | binding [2] | binding [3] | binding [4] | binding [5]
3 | Cbx3, endogenous in mESCs (from UniProt P23198 1-183) | binds |  |  |  | 
4 | human CBX3/HP1γ, endogenous in HEK293T (from UniProt Q13185 1-183) |  |  | no binding | binds | 
5 | Lrif1 long isoform, endogenous in mESCs (protein, UniProt Q8CDD9 1-755) MSNSLQSVILKTAEEKSGSRCISGCMYQVVPTIGSDGKKLLQLLPISKSSGNLIPVVQSPVMSHGLKANTEKPVQVTFQTQISSSSTSASVQLPVFQPANTTKCFFTGAIDTTGKDRVTSVRTGNFTPPVSNIQNHGVKIHKLTRQTFTIPPSTQNDSSHFIFNTPSLLPNVNSSILPSGNHLKIPAHAEVKSVLASSLPPLVQQKILGTATTSTSGTVEASQIPTVVYVHPVNSVKFVVTKKTQTIYPKPVTFNTLQIPPNVATETQLKGGQHPQAAPVNSIFQEYLQPGIPCIIPVKSSNNVATKVLNTFVGRKNLGDNTIDTPLLNTNSSGRTHSVSEPIKDNALIMFNGKVWLNEKGTCGLPSKIDQQNSVSSDIPLKDSSQLVSSSIVTEISREILNSVLVKSKSFQLKTKSLSNSQLASMANLRAEKNEKVERPSFSVTNPHTMNQSTHCLKQSKTVFINPVFPDGFRTGQNAPRKGNLVQNIEKICSSVDAATVTSQQCVFRDQESQTQYEMASIVKKEIQEKGNNKKYSQGSHTNIKASCLKNDAEFKKLFGLTKDLRVCLTRIPDHLSSGKSFNSFNSLMKSSSYKDANIVVKKEEKKQSFSKKRKAETMKMGNTKKIKIENADDTVMSIMNGTDVASSQPLSSILPTSDISQHNIVTSHSTTREDKRTEAEHCSHEKQEKGTLSSSTSFEQSTFLNKNFMEDIFPVTPPELEETIRDEKIRRLKQILREKEAALEELRKKMYQKQ |  |  |  |  | binds
